Values from PubChem BioAssay AID1259308 (NCATS, 2017)

Purpose: 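Knock-downs that increase output of a recombinant reporter protein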 (primary screen)
System: human HEK293 embryonic kidney cells stably expressing firefly luciferase (HEK-CMV-Luc2-Hygro)
Reagent: single siRNA against human genes, 0.8 pmol siRNA per well
Time to read-out: 72 h
Detection: 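Luciferase light (ONE-Glo) measured on one replicate plate set and viability (CellTiter-Glo) on the other, scaled to a negative control siRNA, with robust z-scores and luciferase per cell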
Direction: total luciferase, z-score and total luciferase, % of control: higher = more reporter protein produced; luciferase per cell, z-score: higher = more reporter output per viable cell; viable cells, % of control: higher = more viable cells
Rule for the call: 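An siRNA counts as active if its total luciferase robust z-score exceeds 3; genes with two or more such siRNAs out of three were retested with fresh siRNAs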
Calls: active = raised luciferase; inactive = no rise
This is a random part of about 59,000 reagents tested. About 1,510 of them (2.6%) were called active. 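Calls use total luciferase alone and ignore viability, so some active siRNAs may act by altering cell number.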 A number with no mark means an inactive call. The numbers tell different reagents against one gene apart.

target | siRNA no. | total luciferase, z-score | total luciferase, % of control | luciferase per cell, z-score | viable cells, % of control
CENPM | 1 | -0.0713 | 80.5 | 0.112 | 87.3
CENPM | 2 | -0.831 | 65.4 | -0.608 | 85.7
CENPM | 3 | -0.145 | 79 | -0.356 | 97
ELL2 | 1 | 1.85 | 119 | 2.43 | 70.1
ELL2 | 2 | -0.578 | 70.4 | -0.797 | 97
ELL2 | 3 | -0.838 | 65.2 | -0.83 | 90.7
ISCA1P1 | 1 | -0.215 | 77.6 | 0.0893 | 84.7
ISCA1P1 | 2 | 0.44 | 90.6 | 0.591 | 86.7
ISCA1P1 | 3 | 0.271 | 87.3 | -0.267 | 105
IGBP1C | 1 | 0.581 | 93.4 | 0.255 | 97.6
IGBP1C | 2 | 2.25 | 127 | 2.01 | 83.3
IGBP1C | 3 | -1.01 | 61.7 | -0.706 | 83.1
ZNF280C | 1 | -0.992 | 62.2 | -1.56 | 105
ZNF280C | 2 | -0.494 | 72.1 | -0.218 | 85.3
ZNF280C | 3 | 0.0679 | 83.2 | 0.127 | 90
SARAF | 1 | 0.12 | 84.3 | -0.179 | 98.7
SARAF | 2 | 0.0842 | 83.6 | 0.329 | 85.6
SARAF | 3 | 1.4 | 110 | 1.59 | 80.6
OR1L1 | 1 | 3.83 (active) | 158 | 2.59 | 89.3
OR1L1 | 2 | -0.299 | 75.9 | -0.509 | 97
OR1L1 | 3 | -0.754 | 66.9 | -1.12 | 100
GPX2 | 1 | -0.278 | 76.4 | -0.371 | 94.1
GPX2 | 2 | -0.465 | 72.6 | -0.493 | 92.4
GPX2 | 3 | -0.433 | 73.3 | -0.61 | 96.1
HBE1 | 1 | -0.136 | 79.2 | -0.551 | 102
HBE1 | 2 | 5.5 (active) | 191 | 2.61 | 108
HBE1 | 3 | -0.837 | 65.2 | -1.28 | 102
C11orf87 | 1 | 0.153 | 84.9 | 0.409 | 85.2
C11orf87 | 2 | -1.03 | 61.4 | -0.903 | 87
C11orf87 | 3 | 0.566 | 93.1 | 0.22 | 98.2
USP7 | 1 | 1.27 | 107 | 0.646 | 101
USP7 | 2 | 1.67 | 115 | 1.07 | 97.1
USP7 | 3 | 1.11 | 104 | 1.67 | 74.8
CHRAC1 | 1 | 1.03 | 102 | 0.659 | 96.1
CHRAC1 | 2 | -2.26 | 36.9 | -3.16 | 94.6
CHRAC1 | 3 | 2.47 | 131 | 2.47 | 76.4
IL34 | 1 | 0.416 | 90.2 | 1.02 | 77.1
IL34 | 2 | -2.51 | 32 | -2.95 | 77.7
IL34 | 3 | -0.506 | 71.8 | -0.96 | 103
ZNF256 | 1 | -0.59 | 70.2 | -0.173 | 82.1
ZNF256 | 2 | 0.27 | 87.2 | -0.0055 | 97.6
ZNF256 | 3 | -0.185 | 78.2 | -0.401 | 97.1
CTNNBIP1 | 1 | -0.00585 | 81.8 | -0.721 | 110
CTNNBIP1 | 2 | -0.317 | 75.6 | 0.275 | 78.6
CTNNBIP1 | 3 | -0.33 | 75.3 | 0.451 | 74.7
BTG4 | 1 | -0.636 | 69.2 | -1.28 | 108
BTG4 | 2 | -1.16 | 58.8 | 0.0178 | 65.5
BTG4 | 3 | -0.132 | 79.3 | -0.183 | 92.9
CDH24 | 1 | 0.76 | 97 | 0.297 | 100
CDH24 | 2 | -0.0955 | 80 | -0.327 | 97.4
CDH24 | 3 | 0.106 | 84 | 0.287 | 87
KIDINS220 | 1 | 0.0863 | 83.6 | -1.21 | 129
KIDINS220 | 2 | -0.1 | 79.9 | -0.162 | 93.2
KIDINS220 | 3 | 0.746 | 96.7 | -0.66 | 129
IQCF6 | 1 | 0.464 | 91.1 | 1.13 | 75.6
IQCF6 | 2 | 0.624 | 94.3 | 1.47 | 71.6
IQCF6 | 3 | -0.0401 | 81.1 | -0.543 | 105

Taken from above.
Value for OR1L1 #2 under “viable cells, % of control”: 97
Result for IL34 #3 under “viable cells, % of control”: 103
For “luciferase per cell, z-score”, CHRAC1 #3 has 2.47
Result of IQCF6 #3 in “luciferase per cell, z-score”: -0.543
CENPM #2, total luciferase, % of control = 65.4
